Test [1] addresses 5-hydroxytryptamine receptor 1-E (5-HTR1E) on stably transfected HEK293 cells (human) (UniProt P28566). The test can be described thus: radioligand binding; displacement and specificity: 5-HTR1E stable HEK293 cells with 30 nM [125I] NF-α1/CPE in the presence and absence of 500 nM cold NF-α1/CPE or CPB, serum-free binding medium, 3 h on ice; only the binder purified.
The target of test [2] is human wild type full-length NF-α1/CPE (1–476) with a C-terminal V5 tag (human) (UniProt P16870). The test can be described thus: co-IP; called pull-down assay in the paper: HEK293 cells co-transfected with 5-HTR1E-myc and CPE-V5 or its fragments, 48 h; 1 mg lysate with anti-Myc or anti-V5-conjugated agarose overnight at 4°C; immunoblot with anti-V5 or anti-Myc. A general note: In western blotting, separated proteins are transferred to a membrane and probed.

The chains behind the UniProt entries cited, without tags or fusion partners. Where a name states a change or a piece, a line headed by the entry shows the natural chain unless it says otherwise.
UniProt P28566: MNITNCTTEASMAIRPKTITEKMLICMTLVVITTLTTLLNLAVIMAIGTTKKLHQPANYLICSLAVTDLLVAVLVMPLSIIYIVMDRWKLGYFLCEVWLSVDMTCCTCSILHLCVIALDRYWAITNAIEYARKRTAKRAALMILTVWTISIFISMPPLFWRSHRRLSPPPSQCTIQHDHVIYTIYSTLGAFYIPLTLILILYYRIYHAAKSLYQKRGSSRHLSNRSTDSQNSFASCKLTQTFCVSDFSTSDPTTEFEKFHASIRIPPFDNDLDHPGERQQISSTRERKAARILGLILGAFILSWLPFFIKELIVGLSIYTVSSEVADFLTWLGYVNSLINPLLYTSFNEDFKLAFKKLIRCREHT
UniProt P16870: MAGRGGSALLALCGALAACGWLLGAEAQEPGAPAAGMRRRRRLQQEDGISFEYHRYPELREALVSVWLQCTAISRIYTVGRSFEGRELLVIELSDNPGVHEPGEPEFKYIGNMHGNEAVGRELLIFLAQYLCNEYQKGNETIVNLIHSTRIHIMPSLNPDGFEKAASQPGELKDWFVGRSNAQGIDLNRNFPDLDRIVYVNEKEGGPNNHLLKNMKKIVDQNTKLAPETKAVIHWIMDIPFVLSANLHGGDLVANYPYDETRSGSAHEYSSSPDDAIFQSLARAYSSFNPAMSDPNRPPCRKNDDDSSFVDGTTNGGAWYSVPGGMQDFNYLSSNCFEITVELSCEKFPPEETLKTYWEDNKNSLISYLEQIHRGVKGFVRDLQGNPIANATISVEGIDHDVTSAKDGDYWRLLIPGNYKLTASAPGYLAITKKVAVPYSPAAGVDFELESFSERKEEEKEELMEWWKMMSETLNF
UniProt Q00493: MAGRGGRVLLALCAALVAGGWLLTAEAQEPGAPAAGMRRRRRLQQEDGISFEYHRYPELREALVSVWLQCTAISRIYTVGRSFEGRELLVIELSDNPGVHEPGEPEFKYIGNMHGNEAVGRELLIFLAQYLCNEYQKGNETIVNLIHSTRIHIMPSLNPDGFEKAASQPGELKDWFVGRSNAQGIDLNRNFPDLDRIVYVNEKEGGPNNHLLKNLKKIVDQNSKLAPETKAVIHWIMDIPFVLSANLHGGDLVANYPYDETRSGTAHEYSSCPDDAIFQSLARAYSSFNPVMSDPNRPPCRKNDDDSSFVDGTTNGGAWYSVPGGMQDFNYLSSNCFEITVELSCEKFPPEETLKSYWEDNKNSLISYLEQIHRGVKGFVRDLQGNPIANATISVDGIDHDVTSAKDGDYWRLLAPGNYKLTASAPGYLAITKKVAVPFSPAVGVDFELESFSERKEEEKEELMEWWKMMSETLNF

Test [3] addresses human 5-HTR1E with a C-terminal Myc tag (human) (UniProt P28566). The description is as above.

These are yes or no findings as the source states them, for the method shown. Binding calls can cover weak binding; strength is not graded here. For part of these data: In cells and extracts the contact can be indirect.

Regarding “Recombinant mouse NF-α1/CPE (neurotrophic factor-α1/carboxypeptidase E), unlabeled (from UniProt Q00493) (ligand)”, the binding result in test [1] is “binds”. On to “human 5-HTR1E with a C-terminal Myc tag (from UniProt P28566 1-365) (receptor)”, for which the binding entry in test [2] was “binds”.

For the substance “human wild type full-length NF-α1/CPE (1–476) with a C-terminal V5 tag (from UniProt P16870)”, the binding result in test [3] is given as “binds”.

These data come from article PMC8732845.
